Source: patent US11975048B2 (NOVEL PHARMA INC., priority 2019, dated 2024)

Legend:
[1] = peptide made by a vendor (peptide synthesis; Fmoc-Pro-trityl resin; DIC/HOBt); conditions: whole synthesis, 230 nm, sodium salt or acetate
[2] = peptide made by a vendor; conditions: whole synthesis, sodium salt or acetate

Row | Substance | final HPLC purity [1] [%] | final HPLC purity [2] [%] | final HPLC purity ([1]; run 1) [%]
1 | Arachidic acid-Glu-His-Trp-Ser-Tyr-D-Leu-Leu-Arg-Pro-NHEt (EHWSYLLRP; N-terminal arachidic acid; D-residues; C-terminal NHEt; GnRH analogue; SITE (1)..(1) Glu in position 1 was modified with Arachidic acid.; PEPTIDE (1)..(9) The petide was salificated with acetate salt.; SITE (6)..(6) Leu in position 6 is D-Leu.; SITE (9)..(9) C-terminus of the peptide was modified as NHEt(des-Gly).) | 98.9 |  | 
2 | Lauric acid-Gln-His-Trp-Ser-Tyr-D-Leu-Leu-Arg-Pro-NHEt (QHWSYLLRP; N-terminal lauric acid; D-residues; C-terminal ethylamide; GnRH analogue; SITE (1)..(1) Gln in position 1 was modified with Lauric acid.; PEPTIDE (1)..(9) The petide was salificated with acetate salt.; SITE (6)..(6) Leu in position 6 is D-Leu.; SITE (9)..(9) C-terminus of the peptide was modified as NHEt(des-Gly).) |  | 99.0 | 
3 | Lauric acid-Glu-His-Trp-Ser-Tyr-D-Leu-Leu-Arg-Pro-NHEt (EHWSYLLRP; N-terminal lauric acid; D-residues; C-terminal NHEt; GnRH analogue; SITE (1)..(1) Glu in position 1 was modified with Lauric acid.; PEPTIDE (1)..(9) The petide was salificated with acetate salt.; SITE (6)..(6) Leu in position 6 is D-Leu.; SITE (9)..(9) C-terminus of the peptide was modified as NHEt(des-Gly).) |  | 98.4 | 
4 | PEPTIDE1{[Pal16].Q.H.W.S.Y.[dL].L.R.P.[NHEt]}$$$$V2.0 [P2] |  |  | 98.2
5 | Arachidic acid-Gln-His-Trp-Ser-Tyr-D-Leu-Leu-Arg-Pro-NHEt (QHWSYLLRP; N-terminal arachidic acid; D-residues; C-terminal NHEt; GnRH analogue; SITE (1)..(1) Gln in position 1 was modified with Arachidic acid.; PEPTIDE (1)..(9) The petide was salificated with acetate salt.; SITE (6)..(6) Leu in position 6 is D-Leu.; SITE (9)..(9) C-terminus of the peptide was modified as NHEt(des-Gly).) | 98.8 |  | 
6 | PEPTIDE1{[Pal16].Q.H.W.S.Y.[dL].L.R.P.[NHEt]}$$$$V2.0 [P4] |  |  | 98.3

For part of these data: Strings that start with PEPTIDE1 are HELM notation: dots part the residues, brackets hold end groups and non-standard residues.
